We go through 25 targets from the supplement of paper PMC12595434, “Development of retinoid nuclear receptor pathway antagonists through targeting aldehyde dehydrogenase 1A3” (iScience, 2025).

By UniProt entry, the sequences of proteins in these tests, tags left out. Where a name states a change or a piece, a line headed by the entry shows the natural chain unless it says otherwise.
UniProt Q53GS9: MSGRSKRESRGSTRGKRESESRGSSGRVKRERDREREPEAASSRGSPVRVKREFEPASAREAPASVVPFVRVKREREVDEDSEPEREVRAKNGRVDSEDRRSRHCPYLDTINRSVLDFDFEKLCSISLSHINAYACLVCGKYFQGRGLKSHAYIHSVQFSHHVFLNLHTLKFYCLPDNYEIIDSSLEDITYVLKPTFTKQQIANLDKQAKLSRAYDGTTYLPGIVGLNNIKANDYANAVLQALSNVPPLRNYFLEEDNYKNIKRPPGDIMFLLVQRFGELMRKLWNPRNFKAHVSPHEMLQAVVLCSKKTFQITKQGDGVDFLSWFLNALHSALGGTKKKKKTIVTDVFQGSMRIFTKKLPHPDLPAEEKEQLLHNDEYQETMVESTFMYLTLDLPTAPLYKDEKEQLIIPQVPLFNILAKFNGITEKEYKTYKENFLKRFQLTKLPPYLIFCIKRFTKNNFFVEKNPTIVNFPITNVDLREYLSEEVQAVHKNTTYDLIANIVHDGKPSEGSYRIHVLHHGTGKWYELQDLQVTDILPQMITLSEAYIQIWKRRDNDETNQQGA
UniProt Q15293: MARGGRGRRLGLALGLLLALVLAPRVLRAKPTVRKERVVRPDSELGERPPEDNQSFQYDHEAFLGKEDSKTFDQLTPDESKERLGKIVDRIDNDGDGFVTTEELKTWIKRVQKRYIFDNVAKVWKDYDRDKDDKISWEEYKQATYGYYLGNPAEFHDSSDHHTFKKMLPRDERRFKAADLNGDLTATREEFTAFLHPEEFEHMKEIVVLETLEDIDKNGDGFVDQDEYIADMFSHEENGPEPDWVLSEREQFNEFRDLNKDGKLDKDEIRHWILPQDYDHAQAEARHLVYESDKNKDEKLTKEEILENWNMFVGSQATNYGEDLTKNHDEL
UniProt Q53GL7: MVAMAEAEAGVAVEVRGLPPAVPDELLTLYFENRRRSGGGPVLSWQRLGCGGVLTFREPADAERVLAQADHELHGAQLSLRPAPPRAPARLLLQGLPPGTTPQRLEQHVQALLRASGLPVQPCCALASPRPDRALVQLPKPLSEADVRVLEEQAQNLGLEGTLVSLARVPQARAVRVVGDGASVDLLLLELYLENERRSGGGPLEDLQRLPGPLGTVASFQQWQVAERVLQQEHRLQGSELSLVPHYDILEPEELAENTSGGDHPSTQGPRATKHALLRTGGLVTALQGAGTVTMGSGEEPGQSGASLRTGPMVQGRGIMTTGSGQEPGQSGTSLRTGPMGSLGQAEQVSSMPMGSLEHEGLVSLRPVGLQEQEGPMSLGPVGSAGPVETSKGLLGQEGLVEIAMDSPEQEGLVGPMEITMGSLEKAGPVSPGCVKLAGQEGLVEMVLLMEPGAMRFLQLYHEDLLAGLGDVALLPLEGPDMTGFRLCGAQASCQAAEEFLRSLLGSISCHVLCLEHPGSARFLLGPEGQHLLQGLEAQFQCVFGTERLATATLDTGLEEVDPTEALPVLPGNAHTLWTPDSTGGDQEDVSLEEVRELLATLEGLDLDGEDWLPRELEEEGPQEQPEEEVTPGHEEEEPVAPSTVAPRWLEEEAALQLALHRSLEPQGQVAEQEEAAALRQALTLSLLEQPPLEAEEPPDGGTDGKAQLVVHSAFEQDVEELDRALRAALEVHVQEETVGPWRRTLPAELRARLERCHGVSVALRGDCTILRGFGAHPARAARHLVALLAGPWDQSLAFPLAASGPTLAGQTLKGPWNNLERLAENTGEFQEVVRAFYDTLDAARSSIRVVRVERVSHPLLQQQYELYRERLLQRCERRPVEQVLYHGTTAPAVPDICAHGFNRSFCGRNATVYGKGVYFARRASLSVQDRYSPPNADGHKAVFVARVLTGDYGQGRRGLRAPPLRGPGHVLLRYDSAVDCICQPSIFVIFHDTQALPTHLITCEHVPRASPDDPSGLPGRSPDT
UniProt Q15645: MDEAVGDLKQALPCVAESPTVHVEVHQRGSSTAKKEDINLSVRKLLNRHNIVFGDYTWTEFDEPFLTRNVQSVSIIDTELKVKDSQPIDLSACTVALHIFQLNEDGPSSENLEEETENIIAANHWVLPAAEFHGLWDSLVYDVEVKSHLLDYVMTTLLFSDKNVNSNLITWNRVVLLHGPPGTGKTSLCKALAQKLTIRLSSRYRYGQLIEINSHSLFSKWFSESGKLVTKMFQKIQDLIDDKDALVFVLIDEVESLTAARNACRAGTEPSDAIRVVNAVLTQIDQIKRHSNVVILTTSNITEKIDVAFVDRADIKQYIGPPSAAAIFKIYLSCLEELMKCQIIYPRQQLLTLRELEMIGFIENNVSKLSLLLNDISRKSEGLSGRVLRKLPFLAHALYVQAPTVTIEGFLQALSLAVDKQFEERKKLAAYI
UniProt Q15181: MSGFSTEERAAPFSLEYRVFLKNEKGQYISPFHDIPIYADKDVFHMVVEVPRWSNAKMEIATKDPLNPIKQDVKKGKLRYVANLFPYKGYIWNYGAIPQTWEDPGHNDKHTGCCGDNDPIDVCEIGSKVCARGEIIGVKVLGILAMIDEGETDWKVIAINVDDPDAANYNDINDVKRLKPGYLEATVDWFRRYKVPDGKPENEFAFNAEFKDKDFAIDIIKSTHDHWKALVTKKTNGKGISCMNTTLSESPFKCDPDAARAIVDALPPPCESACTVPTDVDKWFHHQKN
UniProt Q16186: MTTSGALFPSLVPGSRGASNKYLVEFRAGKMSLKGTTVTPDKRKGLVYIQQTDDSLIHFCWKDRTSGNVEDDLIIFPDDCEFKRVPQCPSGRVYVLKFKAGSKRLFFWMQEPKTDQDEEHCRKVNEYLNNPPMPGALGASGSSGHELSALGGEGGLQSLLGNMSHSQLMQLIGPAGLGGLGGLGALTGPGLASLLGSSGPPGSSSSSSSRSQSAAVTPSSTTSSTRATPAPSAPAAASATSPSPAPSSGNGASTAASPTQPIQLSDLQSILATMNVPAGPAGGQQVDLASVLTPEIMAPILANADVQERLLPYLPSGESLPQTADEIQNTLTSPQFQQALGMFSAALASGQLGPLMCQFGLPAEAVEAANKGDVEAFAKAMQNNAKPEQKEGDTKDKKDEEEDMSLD
UniProt Q16836: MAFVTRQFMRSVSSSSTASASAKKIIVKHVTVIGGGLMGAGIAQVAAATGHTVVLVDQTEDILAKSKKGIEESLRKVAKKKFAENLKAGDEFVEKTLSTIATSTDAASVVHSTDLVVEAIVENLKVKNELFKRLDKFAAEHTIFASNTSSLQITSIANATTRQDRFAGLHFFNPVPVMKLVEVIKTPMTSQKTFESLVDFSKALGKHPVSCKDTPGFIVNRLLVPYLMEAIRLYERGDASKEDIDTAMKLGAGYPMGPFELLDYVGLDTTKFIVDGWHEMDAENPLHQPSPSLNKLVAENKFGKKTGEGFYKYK
UniProt Q16566: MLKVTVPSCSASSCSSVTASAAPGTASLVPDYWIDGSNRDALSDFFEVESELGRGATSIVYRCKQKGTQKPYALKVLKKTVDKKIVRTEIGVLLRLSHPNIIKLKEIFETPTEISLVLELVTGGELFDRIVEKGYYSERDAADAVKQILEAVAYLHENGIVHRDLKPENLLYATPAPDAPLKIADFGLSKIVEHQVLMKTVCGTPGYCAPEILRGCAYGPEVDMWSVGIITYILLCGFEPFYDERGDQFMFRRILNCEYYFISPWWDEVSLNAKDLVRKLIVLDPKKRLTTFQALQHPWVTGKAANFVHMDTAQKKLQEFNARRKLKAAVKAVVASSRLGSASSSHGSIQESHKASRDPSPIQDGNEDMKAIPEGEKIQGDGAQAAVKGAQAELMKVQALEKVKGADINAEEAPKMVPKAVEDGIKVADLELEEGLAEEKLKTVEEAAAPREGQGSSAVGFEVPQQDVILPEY
UniProt Q53FT3: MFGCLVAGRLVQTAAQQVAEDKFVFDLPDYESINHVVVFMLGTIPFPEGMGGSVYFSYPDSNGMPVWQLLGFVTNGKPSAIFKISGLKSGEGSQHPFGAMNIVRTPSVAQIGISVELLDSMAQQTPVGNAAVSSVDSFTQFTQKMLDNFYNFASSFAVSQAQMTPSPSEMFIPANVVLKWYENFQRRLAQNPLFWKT
UniProt Q1MSJ5: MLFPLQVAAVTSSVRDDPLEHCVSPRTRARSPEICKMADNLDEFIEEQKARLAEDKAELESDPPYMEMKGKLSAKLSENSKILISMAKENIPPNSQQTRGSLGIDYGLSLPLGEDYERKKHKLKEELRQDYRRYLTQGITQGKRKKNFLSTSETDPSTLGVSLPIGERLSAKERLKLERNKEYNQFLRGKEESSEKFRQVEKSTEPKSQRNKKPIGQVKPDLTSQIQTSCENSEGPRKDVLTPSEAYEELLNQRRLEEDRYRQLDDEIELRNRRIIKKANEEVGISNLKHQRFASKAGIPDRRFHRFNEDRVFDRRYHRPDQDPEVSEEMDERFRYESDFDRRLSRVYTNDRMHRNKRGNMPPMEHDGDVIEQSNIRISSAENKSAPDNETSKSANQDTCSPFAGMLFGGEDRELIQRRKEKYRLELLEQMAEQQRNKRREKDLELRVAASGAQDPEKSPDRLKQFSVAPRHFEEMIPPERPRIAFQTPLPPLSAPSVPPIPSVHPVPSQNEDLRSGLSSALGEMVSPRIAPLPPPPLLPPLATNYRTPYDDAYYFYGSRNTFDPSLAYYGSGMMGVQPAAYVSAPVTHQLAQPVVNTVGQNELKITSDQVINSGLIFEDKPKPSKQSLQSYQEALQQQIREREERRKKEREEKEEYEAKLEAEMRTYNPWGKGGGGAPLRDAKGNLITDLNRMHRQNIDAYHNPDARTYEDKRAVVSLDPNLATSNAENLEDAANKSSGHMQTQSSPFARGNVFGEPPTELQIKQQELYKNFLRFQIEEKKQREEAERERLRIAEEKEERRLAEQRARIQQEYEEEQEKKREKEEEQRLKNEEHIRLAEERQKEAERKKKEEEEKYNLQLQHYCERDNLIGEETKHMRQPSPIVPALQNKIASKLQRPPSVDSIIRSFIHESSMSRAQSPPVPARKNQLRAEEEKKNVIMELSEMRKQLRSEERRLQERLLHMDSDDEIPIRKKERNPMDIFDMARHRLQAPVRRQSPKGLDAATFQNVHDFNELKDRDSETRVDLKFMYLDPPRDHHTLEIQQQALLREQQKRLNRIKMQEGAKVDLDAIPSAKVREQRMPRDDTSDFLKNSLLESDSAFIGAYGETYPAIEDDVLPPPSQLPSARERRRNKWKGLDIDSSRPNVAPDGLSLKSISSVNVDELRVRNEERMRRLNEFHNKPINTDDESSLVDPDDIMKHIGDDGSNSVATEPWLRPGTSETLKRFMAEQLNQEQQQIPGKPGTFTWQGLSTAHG
UniProt Q15428: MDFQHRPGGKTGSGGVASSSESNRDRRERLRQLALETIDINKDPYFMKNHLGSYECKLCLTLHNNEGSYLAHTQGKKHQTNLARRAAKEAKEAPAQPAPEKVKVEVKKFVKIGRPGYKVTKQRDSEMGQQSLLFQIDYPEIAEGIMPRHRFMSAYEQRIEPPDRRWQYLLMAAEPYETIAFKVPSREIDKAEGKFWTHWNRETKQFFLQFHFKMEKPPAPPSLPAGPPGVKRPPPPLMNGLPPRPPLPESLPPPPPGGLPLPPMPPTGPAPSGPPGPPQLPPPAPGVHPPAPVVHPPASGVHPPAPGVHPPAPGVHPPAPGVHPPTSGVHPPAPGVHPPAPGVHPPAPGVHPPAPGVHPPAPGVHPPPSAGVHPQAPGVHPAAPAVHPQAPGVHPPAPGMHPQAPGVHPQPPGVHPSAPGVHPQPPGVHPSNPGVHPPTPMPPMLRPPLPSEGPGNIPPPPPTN
UniProt Q15418, whole entry: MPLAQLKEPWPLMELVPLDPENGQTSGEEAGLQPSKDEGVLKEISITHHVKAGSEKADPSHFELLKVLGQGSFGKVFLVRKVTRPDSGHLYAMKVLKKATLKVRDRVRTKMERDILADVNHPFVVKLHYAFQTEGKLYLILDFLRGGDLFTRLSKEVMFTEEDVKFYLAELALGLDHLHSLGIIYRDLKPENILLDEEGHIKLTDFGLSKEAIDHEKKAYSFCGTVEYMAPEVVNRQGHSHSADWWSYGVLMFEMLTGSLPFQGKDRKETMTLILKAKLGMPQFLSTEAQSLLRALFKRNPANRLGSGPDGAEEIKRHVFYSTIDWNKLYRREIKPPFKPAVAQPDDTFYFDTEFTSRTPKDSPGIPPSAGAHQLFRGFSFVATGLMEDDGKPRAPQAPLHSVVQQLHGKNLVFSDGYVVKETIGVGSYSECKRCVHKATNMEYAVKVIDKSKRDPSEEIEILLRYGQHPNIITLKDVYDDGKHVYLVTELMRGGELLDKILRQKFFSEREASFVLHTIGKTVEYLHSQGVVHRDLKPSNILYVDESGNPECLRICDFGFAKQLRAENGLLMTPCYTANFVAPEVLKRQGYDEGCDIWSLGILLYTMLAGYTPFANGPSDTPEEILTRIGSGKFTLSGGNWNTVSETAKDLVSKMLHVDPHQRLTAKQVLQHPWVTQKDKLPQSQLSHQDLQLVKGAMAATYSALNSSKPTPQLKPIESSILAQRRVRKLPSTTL

Compound in this assay: CCc1cnccc1C(=O)Nc1cc2c(cc1F)NC(=O)CC2
Description: melting temperature shift (DMSO Tm minus MBE1-treated Tm) in cellular thermal proteome profiling; higher = less thermal stabilization by MBE1 (negative = stabilized by MBE1). The settings on record: A375.

Some of the results follow. This is a noisy data set.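 Many melting curves are irregular; where none melted, Tm was taken as 64 °C.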

As to USP39 (UniProt Q53GS9), the melting temperature shift (MBE1 concentration: 100 nM) turned out to be 0.0305 °C and the melting temperature shift (MBE1 concentration: 1 uM) was -0.0427 °C.
With RCN1 (UniProt Q15293), the melting temperature shift was -2.8 °C (MBE1 concentration: 100 nM) and -3.16 °C (MBE1 concentration: 1 uM).
The like results for UniProt Q4L235 were, in that order, -0.751 °C and -0.814 °C.
For the target UniProt Q53GL7, the melting temperature shift reads like this: (MBE1 concentration: 100 nM) -0.554 °C; (MBE1 concentration: 1 uM) -0.771 °C.
On the same counts, the results for TRIP13 (UniProt Q15645) are 0.879 °C and -0.311 °C.
On the same counts, the results for PPA1 (UniProt Q15181) are -0.733 °C and 1.3 °C.
The like results for SF3A1 (UniProt Q15459) were, in that order, 1.51 °C and 0.0122 °C.
Regarding UniProt Q15147, the melting temperature shift by setting is: (MBE1 concentration: 100 nM) -0.263 °C; (MBE1 concentration: 1 uM) 0.769 °C.
In the case of ARL13B (UniProt Q3SXY8), the melting temperature shift runs as follows: (MBE1 concentration: 100 nM) -0.512 °C; (MBE1 concentration: 1 uM) -0.0183 °C.
For NRF1 (UniProt Q16656), the melting temperature shift was 0.134 °C (MBE1 concentration: 100 nM) and -0.623 °C (MBE1 concentration: 1 uM).
Turning to ADRM1 (UniProt Q16186), the melting temperature shift (MBE1 concentration: 100 nM) stood at 0.959 °C and the melting temperature shift (MBE1 concentration: 1 uM) amounted to 0.488 °C.
The like results for HADH (UniProt Q16836) were, in that order, -0.107 °C and -0.0604 °C.
CAMK4 (UniProt Q16566): the melting temperature shift (MBE1 concentration: 100 nM) was -0.885 °C and the melting temperature shift (MBE1 concentration: 1 uM) is 0.519 °C.
The like results for PLEC (UniProt Q15149) were, in that order, 0.739 °C and -0.232 °C.
Turning to C11ORF73 (UniProt Q53FT3), the melting temperature shift by setting is: (MBE1 concentration: 100 nM) -0.355 °C; (MBE1 concentration: 1 uM) 0.0537 °C.
The like results for RASA2 (UniProt Q15283) were, in that order, -1.12 °C and -0.518 °C.
The like results for UniProt Q1MSJ5 were, in that order, 3.69 °C and 0.49 °C.
Regarding UniProt Q16181, the melting temperature shift (MBE1 concentration: 100 nM) was -0.61 °C and the melting temperature shift (MBE1 concentration: 1 uM) is 0.0201 °C.
The like results for SLC9A3R2 (UniProt Q15599) were, in that order, -7.7 °C and -0.836 °C.
Regarding HSDL1 (UniProt Q3SXM5), the melting temperature shift runs as follows: (MBE1 concentration: 100 nM) -0.647 °C; (MBE1 concentration: 1 uM) -1.63 °C.
The like results for NCOA2 (UniProt Q15596) were, in that order, -0.908 °C and -0.513 °C.
The like results for PPP2R5A (UniProt Q15172) were, in that order, 0.421 °C and 0.635 °C.
On the same counts, the results for SF3A2 (UniProt Q15428) are 0.678 °C and 0.488 °C.
Consider PCM1 (UniProt Q15154), for which the melting temperature shift (MBE1 concentration: 100 nM) was -0.208 °C and the melting temperature shift (MBE1 concentration: 1 uM) is 0.159 °C.
The like results for RPS6KA1 (UniProt Q15418) were, in that order, 0.00611 °C and -0.354 °C.
